Measurements taken from the supplement of paper PMC10849652.
This is one part of the list.

The chains behind the UniProt entries cited, without tags or fusion partners. Where a name states a change or a piece, a line headed by the entry shows the natural chain unless it says otherwise.
UniProt Q9Y295: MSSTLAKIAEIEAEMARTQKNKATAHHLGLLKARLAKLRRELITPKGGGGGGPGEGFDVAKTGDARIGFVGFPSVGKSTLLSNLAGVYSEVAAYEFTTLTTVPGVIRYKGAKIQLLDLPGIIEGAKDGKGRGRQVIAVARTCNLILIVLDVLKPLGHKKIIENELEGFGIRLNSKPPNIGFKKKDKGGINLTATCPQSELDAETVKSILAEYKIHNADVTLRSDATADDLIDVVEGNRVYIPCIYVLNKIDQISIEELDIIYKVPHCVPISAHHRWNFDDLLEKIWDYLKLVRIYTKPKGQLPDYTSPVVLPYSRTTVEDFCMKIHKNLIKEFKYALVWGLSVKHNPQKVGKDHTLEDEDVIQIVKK
UniProt Q9NTX5: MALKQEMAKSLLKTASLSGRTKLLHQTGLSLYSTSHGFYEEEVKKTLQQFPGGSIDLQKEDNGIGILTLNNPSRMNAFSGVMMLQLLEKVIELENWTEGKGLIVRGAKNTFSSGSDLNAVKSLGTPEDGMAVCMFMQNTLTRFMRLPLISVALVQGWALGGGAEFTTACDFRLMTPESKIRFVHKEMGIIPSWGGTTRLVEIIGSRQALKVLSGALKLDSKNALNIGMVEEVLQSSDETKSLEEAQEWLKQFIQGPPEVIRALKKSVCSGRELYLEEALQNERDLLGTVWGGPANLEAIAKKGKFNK
UniProt Q15125: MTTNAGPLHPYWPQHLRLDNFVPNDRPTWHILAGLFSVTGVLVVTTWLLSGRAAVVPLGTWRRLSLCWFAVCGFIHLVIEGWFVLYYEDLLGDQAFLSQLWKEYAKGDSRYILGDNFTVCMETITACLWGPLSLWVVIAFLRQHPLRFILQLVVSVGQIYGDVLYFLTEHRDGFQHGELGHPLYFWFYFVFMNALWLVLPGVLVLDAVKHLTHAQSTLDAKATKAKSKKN
UniProt Q96DA6: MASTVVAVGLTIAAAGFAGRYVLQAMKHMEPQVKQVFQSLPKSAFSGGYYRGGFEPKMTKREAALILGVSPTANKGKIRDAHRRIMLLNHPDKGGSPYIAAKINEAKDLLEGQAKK
UniProt Q9NVH1: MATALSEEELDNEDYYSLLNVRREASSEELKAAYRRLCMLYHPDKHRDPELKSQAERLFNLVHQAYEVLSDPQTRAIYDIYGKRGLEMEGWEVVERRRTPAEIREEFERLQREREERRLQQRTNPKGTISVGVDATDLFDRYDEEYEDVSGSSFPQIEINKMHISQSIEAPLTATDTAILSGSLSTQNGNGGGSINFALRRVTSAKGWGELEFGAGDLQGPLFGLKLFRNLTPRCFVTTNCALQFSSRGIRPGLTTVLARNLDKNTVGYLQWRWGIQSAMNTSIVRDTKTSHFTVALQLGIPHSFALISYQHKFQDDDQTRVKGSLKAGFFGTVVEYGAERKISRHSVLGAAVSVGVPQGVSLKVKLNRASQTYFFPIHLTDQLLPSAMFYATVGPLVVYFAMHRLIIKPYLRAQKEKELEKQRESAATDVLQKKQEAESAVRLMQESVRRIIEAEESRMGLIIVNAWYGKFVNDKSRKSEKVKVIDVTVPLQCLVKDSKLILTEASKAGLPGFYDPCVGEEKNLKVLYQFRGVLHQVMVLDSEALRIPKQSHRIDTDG
UniProt O95905: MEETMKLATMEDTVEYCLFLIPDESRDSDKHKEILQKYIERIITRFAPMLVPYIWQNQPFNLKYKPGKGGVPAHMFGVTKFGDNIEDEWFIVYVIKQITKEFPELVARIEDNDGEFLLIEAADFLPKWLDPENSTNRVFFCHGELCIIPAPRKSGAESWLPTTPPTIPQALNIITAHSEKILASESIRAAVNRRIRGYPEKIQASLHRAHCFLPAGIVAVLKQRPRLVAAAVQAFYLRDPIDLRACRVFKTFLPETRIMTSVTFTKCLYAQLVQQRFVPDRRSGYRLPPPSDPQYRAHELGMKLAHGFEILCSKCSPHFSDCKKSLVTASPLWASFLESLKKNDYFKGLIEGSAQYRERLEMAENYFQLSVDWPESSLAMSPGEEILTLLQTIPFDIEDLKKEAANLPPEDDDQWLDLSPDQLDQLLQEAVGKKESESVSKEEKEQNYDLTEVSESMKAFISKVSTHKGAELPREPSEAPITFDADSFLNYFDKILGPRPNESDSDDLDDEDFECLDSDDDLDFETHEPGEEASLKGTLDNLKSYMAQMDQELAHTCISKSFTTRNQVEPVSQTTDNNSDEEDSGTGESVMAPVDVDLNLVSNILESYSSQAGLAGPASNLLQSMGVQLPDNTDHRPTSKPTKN
UniProt Q86TI2: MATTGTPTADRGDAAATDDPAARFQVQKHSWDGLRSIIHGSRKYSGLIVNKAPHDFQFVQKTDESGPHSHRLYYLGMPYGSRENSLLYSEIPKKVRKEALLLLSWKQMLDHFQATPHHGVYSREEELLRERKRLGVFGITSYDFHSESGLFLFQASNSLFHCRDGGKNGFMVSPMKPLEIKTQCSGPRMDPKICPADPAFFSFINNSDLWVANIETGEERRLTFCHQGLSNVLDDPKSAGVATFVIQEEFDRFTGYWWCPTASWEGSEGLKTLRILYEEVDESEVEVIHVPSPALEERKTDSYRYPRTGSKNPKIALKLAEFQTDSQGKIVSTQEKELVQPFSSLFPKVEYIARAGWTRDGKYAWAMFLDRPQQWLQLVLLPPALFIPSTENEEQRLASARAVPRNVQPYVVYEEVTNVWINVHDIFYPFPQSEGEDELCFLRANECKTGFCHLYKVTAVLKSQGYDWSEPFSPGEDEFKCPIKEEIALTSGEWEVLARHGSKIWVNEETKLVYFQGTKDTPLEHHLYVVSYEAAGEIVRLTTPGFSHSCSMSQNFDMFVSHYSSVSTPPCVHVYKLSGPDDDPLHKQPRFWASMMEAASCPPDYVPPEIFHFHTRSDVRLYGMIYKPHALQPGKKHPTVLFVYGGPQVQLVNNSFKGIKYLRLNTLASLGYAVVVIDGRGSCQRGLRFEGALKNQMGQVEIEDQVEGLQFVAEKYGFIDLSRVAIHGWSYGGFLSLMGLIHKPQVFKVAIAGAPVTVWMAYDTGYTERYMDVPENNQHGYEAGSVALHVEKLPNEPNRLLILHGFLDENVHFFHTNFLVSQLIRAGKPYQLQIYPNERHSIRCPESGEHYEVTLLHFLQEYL
UniProt Q9UNI6, whole entry, looked up: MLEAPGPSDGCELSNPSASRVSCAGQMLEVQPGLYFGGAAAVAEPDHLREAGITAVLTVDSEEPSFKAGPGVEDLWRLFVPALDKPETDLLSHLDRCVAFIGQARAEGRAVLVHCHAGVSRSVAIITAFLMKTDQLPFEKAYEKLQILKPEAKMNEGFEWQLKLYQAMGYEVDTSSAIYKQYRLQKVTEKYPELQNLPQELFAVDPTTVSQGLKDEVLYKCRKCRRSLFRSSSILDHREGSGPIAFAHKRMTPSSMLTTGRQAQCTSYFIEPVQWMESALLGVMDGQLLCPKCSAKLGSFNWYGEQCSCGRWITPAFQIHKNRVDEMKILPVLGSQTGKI
UniProt Q9BVJ7: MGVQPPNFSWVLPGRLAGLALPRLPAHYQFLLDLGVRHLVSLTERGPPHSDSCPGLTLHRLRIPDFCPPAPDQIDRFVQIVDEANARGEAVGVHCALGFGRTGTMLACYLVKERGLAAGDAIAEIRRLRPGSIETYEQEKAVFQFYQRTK
UniProt O60869: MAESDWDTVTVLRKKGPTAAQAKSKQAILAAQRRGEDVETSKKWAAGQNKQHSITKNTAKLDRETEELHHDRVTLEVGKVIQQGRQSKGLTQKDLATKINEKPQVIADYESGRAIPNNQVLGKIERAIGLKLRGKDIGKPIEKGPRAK
UniProt O60762: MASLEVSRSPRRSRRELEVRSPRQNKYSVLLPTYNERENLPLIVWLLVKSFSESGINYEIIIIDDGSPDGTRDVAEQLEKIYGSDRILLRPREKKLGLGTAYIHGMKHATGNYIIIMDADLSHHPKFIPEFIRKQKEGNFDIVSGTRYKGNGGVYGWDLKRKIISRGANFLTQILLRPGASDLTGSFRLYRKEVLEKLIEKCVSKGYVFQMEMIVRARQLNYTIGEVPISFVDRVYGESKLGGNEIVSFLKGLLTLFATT
UniProt Q9UDY4: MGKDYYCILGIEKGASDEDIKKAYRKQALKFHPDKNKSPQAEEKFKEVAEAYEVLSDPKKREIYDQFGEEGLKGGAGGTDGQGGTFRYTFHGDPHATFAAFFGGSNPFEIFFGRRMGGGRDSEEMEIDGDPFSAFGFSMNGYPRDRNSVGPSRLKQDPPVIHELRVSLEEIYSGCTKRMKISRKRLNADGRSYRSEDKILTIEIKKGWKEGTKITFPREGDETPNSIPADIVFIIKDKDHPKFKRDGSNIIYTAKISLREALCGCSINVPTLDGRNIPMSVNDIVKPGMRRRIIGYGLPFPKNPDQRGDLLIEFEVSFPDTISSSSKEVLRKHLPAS
UniProt O00559: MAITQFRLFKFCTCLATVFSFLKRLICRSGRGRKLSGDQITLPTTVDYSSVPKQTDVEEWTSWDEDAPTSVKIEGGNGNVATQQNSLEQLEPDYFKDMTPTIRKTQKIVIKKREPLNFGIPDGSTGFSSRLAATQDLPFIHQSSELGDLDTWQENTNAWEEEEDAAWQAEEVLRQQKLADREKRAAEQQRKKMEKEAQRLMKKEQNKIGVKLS
UniProt Q96EV8: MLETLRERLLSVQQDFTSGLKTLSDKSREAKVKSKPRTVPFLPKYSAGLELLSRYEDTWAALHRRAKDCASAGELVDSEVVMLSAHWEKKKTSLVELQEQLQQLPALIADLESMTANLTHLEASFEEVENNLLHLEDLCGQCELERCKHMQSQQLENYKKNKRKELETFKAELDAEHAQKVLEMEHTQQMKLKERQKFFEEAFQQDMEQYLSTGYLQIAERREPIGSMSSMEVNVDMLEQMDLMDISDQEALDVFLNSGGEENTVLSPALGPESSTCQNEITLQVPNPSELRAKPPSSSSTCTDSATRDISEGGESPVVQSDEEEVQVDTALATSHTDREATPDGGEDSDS
UniProt P50570: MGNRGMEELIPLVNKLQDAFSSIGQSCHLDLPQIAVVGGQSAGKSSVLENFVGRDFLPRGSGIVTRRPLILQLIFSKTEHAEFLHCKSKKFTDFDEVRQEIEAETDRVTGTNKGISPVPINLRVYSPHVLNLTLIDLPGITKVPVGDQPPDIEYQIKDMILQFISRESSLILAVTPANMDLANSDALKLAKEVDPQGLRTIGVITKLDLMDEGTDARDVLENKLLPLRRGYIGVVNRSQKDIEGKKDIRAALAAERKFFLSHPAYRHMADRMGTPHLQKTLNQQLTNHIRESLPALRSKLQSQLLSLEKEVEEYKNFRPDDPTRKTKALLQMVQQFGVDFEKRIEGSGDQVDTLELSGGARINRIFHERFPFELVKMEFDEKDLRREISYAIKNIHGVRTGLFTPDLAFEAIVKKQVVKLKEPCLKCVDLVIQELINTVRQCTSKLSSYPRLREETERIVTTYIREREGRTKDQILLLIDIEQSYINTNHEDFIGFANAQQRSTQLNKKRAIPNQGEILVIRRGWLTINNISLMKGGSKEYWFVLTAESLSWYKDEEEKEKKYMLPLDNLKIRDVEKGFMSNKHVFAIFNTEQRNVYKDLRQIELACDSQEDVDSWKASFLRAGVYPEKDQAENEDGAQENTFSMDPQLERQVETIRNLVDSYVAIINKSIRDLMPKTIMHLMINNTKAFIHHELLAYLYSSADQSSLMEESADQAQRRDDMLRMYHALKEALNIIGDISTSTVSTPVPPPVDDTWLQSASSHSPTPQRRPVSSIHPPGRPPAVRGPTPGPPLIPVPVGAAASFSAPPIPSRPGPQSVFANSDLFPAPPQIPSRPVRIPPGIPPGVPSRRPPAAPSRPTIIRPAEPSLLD

What was measured:
Assay in all cases: log2 fold change, soluble protein after heating vs DMSO (PISA); higher = thermal stabilisation; K562 cells, 10 uM, 30 min; active = over 0.2 and 3.5 SD of the protein, either way, in both replicates (recomputed)
bafetinib = compound: Cc1ccc(NC(=O)c2ccc(CN3CC[C@H](N(C)C)C3)c(C(F)(F)F)c2)cc1Nc1nccc(-c2cncnc2)n1 [bafetinib]
Procedure, shortened: (§1)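 K562 cells (2×10^6 cells/mL) were treated with 10 μM compound for 30 min, and aliquots were heated for 3 min over 48°C-58°C. Pooled aliquots were extracted in PBS with 0.5% NP-40 at 4°C, and the supernatant after 21,000xg for 90 min was measured by TMTpro 16plex LC-MS/MS with channel sums equalised. Reported thermal stability, relative to control samples and from duplicates, is a log2 fold change.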

[1] = compound: Cc1cccc(CC(=O)N2CCc3c2ccc(-c2cn(C)c4ncnc(N)c24)c3F)n1
Procedure, shortened: as §1

nilotinib = compound: Cc1cn(-c2cc(NC(=O)c3ccc(C)c(Nc4nccc(-c5cccnc5)n4)c3)cc(C(F)(F)F)c2)cn1 [nilotinib]
Procedure, shortened: as §1

[2] = compound: Cc1nc(Nc2n[nH]c3c2CN(C(=O)N[C@H](CN(C)C)c2ccccc2)C3(C)C)c2sccc2n1
Procedure, shortened: as §1

dasatinib = compound: Cc1nc(Nc2ncc(C(=O)Nc3c(C)cccc3Cl)s2)cc(N2CCN(CCO)CC2)n1 [dasatinib]
Procedure, shortened: as §1

[3] = compound: Cc1ncc(-c2ccnc(Nc3ccc(S(C)(=O)=O)cc3)n2)n1C(C)C
Procedure, shortened: as §1

[4] = compound: Cn1cc(-c2ccc3c(c2)CCN3C(=O)Cc2cccc(C(F)(F)F)c2)c2c(N)ncnc21
Procedure, shortened: as §1

[5] = compound: Cn1cc(-c2ccc3nnc(C(F)(F)c4ccc5ncccc5c4)n3n2)cn1
Procedure, shortened: as §1

tipifarnib = compound: Cn1cncc1[C@@](N)(c1ccc(Cl)cc1)c1ccc2c(c1)c(-c1cccc(Cl)c1)cc(=O)n2C [tipifarnib]
Procedure, shortened: as §1

mubritinib = compound: FC(F)(F)c1ccc(/C=C/c2nc(COc3ccc(CCCCn4ccnn4)cc3)co2)cc1 [mubritinib]
Procedure, shortened: as §1

[6] = compound: NC(=O)Nc1cc(-c2cccc(F)c2)sc1C(=O)N[C@H]1CCCNC1
Procedure, shortened: as §1

[7] = compound: NC(=O)c1cnc(N[C@@H]2CCCC[C@@H]2N)nc1Nc1cccc(-n2nccn2)c1
Procedure, shortened: as §1

[8] = compound: NC1(c2ccc(-c3nc4ccn5c(=O)[nH]nc5c4cc3-c3ccccc3)cc2)CCC1
Procedure, shortened: as §1

[9] = compound: NCC(=O)Nc1ccc(-n2nc(C(F)(F)F)cc2-c2ccc3c(ccc4ccccc43)c2)cc1
Procedure, shortened: as §1

entinostat = compound: Nc1ccccc1NC(=O)c1ccc(CNC(=O)OCc2cccnc2)cc1 [entinostat]
Procedure, shortened: as §1

vorinostat = compound: O=C(CCCCCCC(=O)Nc1ccccc1)NO [vorinostat]
Procedure, shortened: as §1

citarinostat = compound: O=C(CCCCCCNC(=O)c1cnc(N(c2ccccc2)c2ccccc2Cl)nc1)NO [citarinostat]
Procedure, shortened: as §1

silmitasertib = compound: O=C(O)c1ccc2c(c1)nc(Nc1cccc(Cl)c1)c1ccncc12 [silmitasertib]
Procedure, shortened: as §1

[10] = compound: O=C1NC(=O)C(c2cnc3ccccn23)=C1c1cn2c3c(cc(F)cc13)CN(C(=O)N1CCCCC1)CC2
Procedure, shortened: as §1

[11] = compound: c1cc(OCCN2CCCCC2)cc(-c2n[nH]c3ccc(-c4nnc[nH]4)cc23)c1
Procedure, shortened: as §1

Measured: log2 fold change

DRG1 (UniProt Q9Y295)
inactive: bafetinib 0.08 | [1] -0.009 | nilotinib 0.035 | [2] 0.073 | dasatinib 0.061 | [3] 0.02 | [4] -0.053 | [5] -0.023 | tipifarnib 0.025 | mubritinib -0.008 | [6] -0.089 | [7] -0.035 | [8] 0.071 | [9] 0 | entinostat -0.032 | vorinostat -0.017 | citarinostat -0.029 | silmitasertib 0.049 | [10] 0.016 | [11] -0.085

ECHDC1 (UniProt Q9NTX5)
inactive: bafetinib -0.054 | [1] -0.066 | nilotinib 0.026 | [2] 0.016 | dasatinib 0.053 | [3] -0.005 | [4] 0.004 | [5] 0.048 | tipifarnib 0.041 | mubritinib 0.034 | [6] -0.009 | [7] -0.015 | [8] -0.006 | [9] -0.051 | entinostat -0.022 | vorinostat -0.074 | citarinostat 0.015 | silmitasertib -0.003 | [10] -0.079 | [11] -0.011

EBP (UniProt Q15125)
inactive: bafetinib -0.018 | [1] -0.011 | nilotinib -0.064 | [2] 0.07 | dasatinib 0.004 | [3] -0.028 | [4] 0.063 | [5] 0.1 | tipifarnib 0.005 | mubritinib -0.044 | [6] 0.022 | [7] 0.012 | [8] -0.054 | [9] -0.065 | entinostat 0.028 | vorinostat -0.014 | citarinostat 0.05 | silmitasertib -0.125 | [10] 0.058 | [11] 0.006

DNAJC13 (UniProt O75165)
inactive: bafetinib -0.027 | [1] 0.098 | nilotinib -0.146 | [2] -0.134 | dasatinib -0.105 | [3] 0.122 | [4] -0.017 | [5] -0.068 | tipifarnib 0.019 | mubritinib 0.104 | [6] 0.019 | [7] -0.051 | [8] -0.02 | [9] 0.004 | entinostat 0.012 | vorinostat 0.071 | citarinostat 0.019 | silmitasertib 0.049 | [10] 0.037 | [11] -0.112

DNAJC19 (UniProt Q96DA6)
inactive: bafetinib -0.123 | [1] 0.003 | nilotinib 0.025 | [2] 0.002 | dasatinib -0.003 | [3] -0.005 | [4] 0.012 | [5] 0.022 | tipifarnib 0.012 | mubritinib 0.001 | [6] -0.014 | [7] 0.004 | [8] -0.017 | [9] -0.006 | entinostat 0.004 | vorinostat -0.03 | citarinostat 0.024 | silmitasertib -0.018 | [10] 0.01 | [11] -0.015

DNAJC11 (UniProt Q9NVH1)
inactive: bafetinib -0.013 | [1] 0.034 | nilotinib 0.017 | [2] -0.005 | dasatinib -0.067 | [3] -0.012 | [4] 0.01 | [5] 0.013 | tipifarnib 0.013 | mubritinib 0.024 | [6] -0.012 | [7] -0.037 | [8] -0.052 | [9] -0.038 | entinostat 0.005 | vorinostat -0.008 | citarinostat 0.012 | silmitasertib -0.021 | [10] -0.056 | [11] 0.006

ECD isoform 3 (UniProt O95905)
inactive: bafetinib 0.025 | [1] 0.037 | nilotinib 0.13 | [2] -0.039 | dasatinib -0.18 | [3] -0.103 | [4] -0.015 | [5] -0.067 | tipifarnib -0.08 | mubritinib 0.033 | [6] -0.003 | [8] -0.059 | [9] 0.02 | entinostat 0.03 | vorinostat 0.004 | citarinostat -0.032 | silmitasertib 0.177 | [10] 0.098 | [11] -0.159

DPP9 isoform 2 (UniProt Q86TI2)
inactive: bafetinib -0.01 | [1] 0.046 | nilotinib -0.001 | [2] -0.001 | dasatinib -0.041 | [3] -0.047 | [4] 0.105 | [5] 0.013 | tipifarnib -0.077 | mubritinib 0.09 | [6] 0.008 | [7] -0.039 | [8] -0.13 | [9] -0.044 | entinostat -0.006 | vorinostat 0.108 | citarinostat -0.008 | silmitasertib -0.042 | [10] -0.037 | [11] -0.049

DUSP12 (UniProt Q9UNI6)
inactive: bafetinib -0.016 | [1] -0.079 | nilotinib 0.03 | [2] -0.03 | dasatinib -0.027 | [3] -0.006 | [4] 0.006 | [5] 0.002 | tipifarnib -0.045 | mubritinib 0.039 | [6] -0.017 | [7] -0.099 | [8] -0.135 | [9] -0.075 | entinostat -0.006 | vorinostat -0.016 | citarinostat 0.036 | silmitasertib 0.002 | [10] -0.055 | [11] -0.031

DUSP23 (UniProt Q9BVJ7)
inactive: bafetinib -0.007 | [1] 0.059 | nilotinib 0.041 | [2] -0.02 | dasatinib 0.025 | [3] 0.025 | [4] 0.061 | [5] 0.033 | tipifarnib -0.172 | mubritinib 0.012 | [6] -0.016 | [7] -0.03 | [8] -0.057 | [9] -0.055 | entinostat 0.033 | vorinostat -0.027 | citarinostat 0.055 | silmitasertib 0.033 | [10] -0.066 | [11] -0.03

EDF1 (UniProt O60869)
inactive: bafetinib -0.03 | [1] -0.012 | nilotinib -0.046 | [2] 0.031 | dasatinib 0.062 | [3] -0.031 | [4] 0.038 | [5] 0.072 | tipifarnib -0.002 | mubritinib 0.01 | [6] 0.009 | [7] 0.001 | [8] 0.026 | [9] 0.003 | entinostat -0.025 | vorinostat -0.004 | citarinostat 0.004 | silmitasertib -0.045 | [10] -0.096 | [11] 0.027

DPM1 (UniProt O60762)
inactive: bafetinib -0.024 | [1] -0.003 | nilotinib 0.065 | [2] 0.081 | dasatinib 0.036 | [3] -0.037 | [4] 0.002 | [5] 0.002 | tipifarnib -0.008 | mubritinib 0.012 | [6] -0.008 | [7] -0.005 | [8] -0.067 | [9] -0.03 | entinostat -0.01 | vorinostat 0.01 | citarinostat 0.032 | silmitasertib -0.005 | [10] -0.048 | [11] -0.06

DNAJB4 (UniProt Q9UDY4)
inactive: bafetinib -0.023 | [1] 0.046 | nilotinib -0.035 | [2] -0.044 | dasatinib -0.044 | [3] -0.007 | [4] 0.033 | [5] 0.028 | tipifarnib -0.098 | mubritinib 0.031 | [6] 0.012 | [7] -0.114 | [8] 0.015 | [9] -0.032 | entinostat 0.008 | vorinostat -0.035 | citarinostat 0.046 | silmitasertib -0.044 | [10] -0.038 | [11] -0.049

EBAG9 isoform 2 (UniProt O00559)
inactive: bafetinib -0.046 | [1] -0.109 | nilotinib 0.057 | [2] 0.006 | dasatinib 0.03 | [3] 0.005 | [4] 0.018 | [5] -0.144 | tipifarnib 0.005 | mubritinib 0.045 | [6] 0.008 | [7] 0.171 | [8] 0.059 | [9] -0.004 | entinostat -0.054 | vorinostat 0.11 | citarinostat -0.033 | silmitasertib -0.05 | [10] 0.057 | [11] 0.02

DTNBP1 (UniProt Q96EV8)
inactive: bafetinib 0.014 | [1] 0.004 | nilotinib -0.047 | [2] -0.027 | dasatinib 0.072 | [3] 0.016 | [4] 0.053 | [5] 0.036 | tipifarnib -0.083 | mubritinib -0.081 | [6] -0.022 | [7] -0.011 | [8] -0.038 | [9] -0.063 | entinostat 0.033 | vorinostat 0.091 | citarinostat -0.001 | silmitasertib -0.013 | [10] -0.032 | [11] -0.042

Taken from the entries so far (2 entries):
DPM1 (UniProt O60762)
inactive: bafetinib -0.024 | [1] -0.003 | nilotinib 0.065 | [2] 0.081 | dasatinib 0.036 | [3] -0.037 | [4] 0.002 | [5] 0.002 | tipifarnib -0.008 | mubritinib 0.012 | [6] -0.008 | [7] -0.005 | [8] -0.067 | [9] -0.03 | entinostat -0.01 | vorinostat 0.01 | citarinostat 0.032 | silmitasertib -0.005 | [10] -0.048 | [11] -0.06

DNAJB4 (UniProt Q9UDY4)
inactive: bafetinib -0.023 | [1] 0.046 | nilotinib -0.035 | [2] -0.044 | dasatinib -0.044 | [3] -0.007 | [4] 0.033 | [5] 0.028 | tipifarnib -0.098 | mubritinib 0.031 | [6] 0.012 | [7] -0.114 | [8] 0.015 | [9] -0.032 | entinostat 0.008 | vorinostat -0.035 | citarinostat 0.046 | silmitasertib -0.044 | [10] -0.038 | [11] -0.049

(next part)

DNM2 (UniProt P50570)
inactive: bafetinib -0.035 | [1] 0 | nilotinib -0.054 | [2] -0.003 | dasatinib -0.099 | [3] 0 | [4] 0.075 | [5] 0.007 | tipifarnib -0.071 | mubritinib 0.017 | [6] -0.019 | [7] -0.037 | [8] -0.153 | [9] -0.023 | entinostat 0.005 | vorinostat 0.03 | citarinostat 0.051 | silmitasertib -0.054 | [10] 0.008 | [11] -0.014
